Results published in PubChem BioAssay AID2685 (National Center for Advancing Translational Sciences (NCATS), 2010).
The other results are listed elsewhere or left out. Shown are side measurements of this screen, not its main read-out; they come without a call. Most of these compounds were active or inconclusive in the main read-out, so they are no random draw. Words in brackets tell the shape of the fitted curve; partial curves, single points and poor fits give uncertain potencies.

Assay: qHTS Assay for Lipid Storage Modulators in Drosophila S3 Cells;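 as to cell number change: cells counted by Cell Tracker Red CMTPX staining in the red channel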
Settings: BODIPY lipid droplet fluorescence, 18-24 h; for cell number change: measured here: cell count max response, cells fed with added oleic acid
Method in brief: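 Laser-scanning cytometry quantifies lipid droplet accumulation (500–530 nm total intensity; droplet/cell object ratio) in oleic acid-fed (400 uM added) Drosophila S3 cells treated with a concentration series. 20 uM Triacsin C defined 100% inhibition.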

[1] = measured here: lipid fluorescence (Fed channel) AC50, cells fed with added oleic acid
[2] = measured here: cell number channel AC50, cells fed with added oleic acid

SMILES | cell number change [%] | AC50 [1] | AC50 [2]
CCOC(=O)/C=C1\SCC(=O)N1Cc1nnc(-c2ccccc2Br)o1 | -8.45 | 3.66 µM [rising, full curve] | 
CCCc1cc(=O)[nH]c(SCC(=O)Nc2ccc(OC(F)F)cc2)n1 | 3.43 | 2.31 µM [falling, partial curve, poor fit] | 
COc1cc(OC)cc(C(=O)NNC(=O)c2ccc(-n3cncn3)c([N+](=O)[O-])c2)c1 | 39 |  | 13 µM [rising, single point]
CCn1ncc(Br)c1C(=O)Nc1sc2c(c1C(N)=O)CCC2 |  | 0.103 µM [falling, full curve, poor fit] | 
COc1ccc(-c2nc(=S)[nH][nH]2)cc1OC | 7.94 |  | 6.51 µM [rising, single point]
O=C(CNC(=O)c1cnccc1C(F)(F)F)c1cccc(Cl)c1 | 0.196 | 1.16 µM [rising, partial curve, poor fit] | 
CCC(CC)NC(=O)CSc1ccc(S(=O)(=O)N2CCCCC2)cn1 | 75 |  | 29.1 µM [rising, single point]
COc1ccc(N2CSC3=C(C#N)C(c4cccc(OC)c4OC)CC(=O)N3C2)cc1 (centres undefined) | -16.5 | 6.51 µM [rising, partial curve, poor fit] | 
Cc1ccc(C)c(C(=O)N(Cc2nc(-c3ccc(Cl)cc3)no2)C(C)C)c1 | 6.5 | 0.13 µM [rising, full curve, poor fit] | 3.26 µM [rising, single point]
COc1cc([N+](=O)[O-])ccc1NC(=S)Nc1cc(C(=O)OC(C)C)cc(C(=O)OC(C)C)c1 | -15 | 29.1 µM [falling, single point] | 
COc1cc(C2NC(=O)NC(C)=C2C(=O)OCc2ccc(C)cc2)cc(OC)c1O (centres undefined) | 14.3 | 16.4 µM [rising, single point] | 
COc1ccc(Br)c(C(=O)OCC(=O)NC2CC2)c1 | 24.4 | 23.1 µM [falling, single point] | 
Cc1c(Cc2ccccc2)c(=O)oc2c(CN(C)C)c(O)c(Cl)cc12 | -32.7 | 29.1 µM [falling, single point] | 
COc1ccccc1C(=O)N(Cc1ccc(Cl)cc1)C1CCS(=O)(=O)C1 (centres undefined) |  | 9.2 µM [falling, partial curve] | 
COc1cc2c(cc1OC)CN(c1ccc(F)cc1[N+](=O)[O-])CC2 | 16.2 | 0.411 µM [rising, full curve, poor fit] | 
O=C(COC(=O)CNC(=O)C1CCCCC1)Nc1ccc(Cl)cc1F | -10 |  | 0.164 µM [rising, full curve, poor fit]
O=C(Cn1cnc2cc([N+](=O)[O-])ccc2c1=O)NC(c1ccccc1)c1ccccc1 | 43.9 | 6.51 µM [falling, single point] | 29.1 µM [rising, single point]
Cc1ccc(-c2[nH]nc3c2C(c2ccsc2)C(C#N)=C(N)O3)cc1 (centres undefined) | 4.68 | 6.51 µM [rising, partial curve] | 0.291 µM [rising, partial curve, poor fit]
Cc1cccc(N(CC(=O)NCc2ccco2)C(=O)CCC(=O)Nc2ccccn2)c1C | -4.27 |  | 
COc1ccc(C(=O)NN=C(Cc2ccccc2)Cc2ccccc2)cc1OC | -16.8 | 3.66 µM [rising, single point] | 

Not a retest: an excerpt of the list.
SMILES | cell number change [%] | AC50 [1] | AC50 [2]
CCC(CC)NC(=O)CSc1ccc(S(=O)(=O)N2CCCCC2)cn1 | 75 |  | 29.1 µM [rising, single point]
COc1ccc(N2CSC3=C(C#N)C(c4cccc(OC)c4OC)CC(=O)N3C2)cc1 (centres undefined) | -16.5 | 6.51 µM [rising, partial curve, poor fit] | 
Cc1ccc(C)c(C(=O)N(Cc2nc(-c3ccc(Cl)cc3)no2)C(C)C)c1 | 6.5 | 0.13 µM [rising, full curve, poor fit] | 3.26 µM [rising, single point]
COc1cc([N+](=O)[O-])ccc1NC(=S)Nc1cc(C(=O)OC(C)C)cc(C(=O)OC(C)C)c1 | -15 | 29.1 µM [falling, single point] | 
COc1cc(C2NC(=O)NC(C)=C2C(=O)OCc2ccc(C)cc2)cc(OC)c1O (centres undefined) | 14.3 | 16.4 µM [rising, single point] | 
COc1ccc(Br)c(C(=O)OCC(=O)NC2CC2)c1 | 24.4 | 23.1 µM [falling, single point] | 
Cc1c(Cc2ccccc2)c(=O)oc2c(CN(C)C)c(O)c(Cl)cc12 | -32.7 | 29.1 µM [falling, single point] | 
COc1ccccc1C(=O)N(Cc1ccc(Cl)cc1)C1CCS(=O)(=O)C1 (centres undefined) |  | 9.2 µM [falling, partial curve] | 
COc1cc2c(cc1OC)CN(c1ccc(F)cc1[N+](=O)[O-])CC2 | 16.2 | 0.411 µM [rising, full curve, poor fit] | 
O=C(COC(=O)CNC(=O)C1CCCCC1)Nc1ccc(Cl)cc1F | -10 |  | 0.164 µM [rising, full curve, poor fit]
O=C(Cn1cnc2cc([N+](=O)[O-])ccc2c1=O)NC(c1ccccc1)c1ccccc1 | 43.9 | 6.51 µM [falling, single point] | 29.1 µM [rising, single point]
Cc1ccc(-c2[nH]nc3c2C(c2ccsc2)C(C#N)=C(N)O3)cc1 (centres undefined) | 4.68 | 6.51 µM [rising, partial curve] | 0.291 µM [rising, partial curve, poor fit]
Cc1cccc(N(CC(=O)NCc2ccco2)C(=O)CCC(=O)Nc2ccccn2)c1C | -4.27 |  | 
COc1ccc(C(=O)NN=C(Cc2ccccc2)Cc2ccccc2)cc1OC | -16.8 | 3.66 µM [rising, single point] | 

Continuation.

SMILES | cell number change [%] | AC50 [1] | AC50 [2]
Cc1ccc(S(=O)(=O)NCCC(=O)NNC(=O)c2ccccc2Cl)cc1C | 17.9 | 13 µM [rising, single point] | 
Cc1ccc(S(=O)(=O)Nc2c(NC3CCCCC3)c3ccccc3oc2=O)cc1 | -38.4 | 6.51 µM [falling, single point] | 0.0082 µM [falling, full curve, poor fit]
CCCN=C1NC(=O)C(CC(=O)NCCc2ccccc2)S1 (centres undefined) | -66.5 | 4.11 µM [falling, partial curve, poor fit] | 16.4 µM [falling, partial curve]
Oc1ccc(N=Nc2n[nH]c(-c3ccc(Cl)cc3)n2)cc1 | 6.32 | 0.00411 µM [rising, full curve, poor fit] | 
CC(C)c1ccc(NC(=O)C2CC2c2ccccc2)cc1 (centres undefined) | -31.6 | 29.1 µM [falling, single point] | 29.1 µM [falling, single point]
O=C1NC(=Nc2ccccc2Cl)S/C1=C\c1cc([N+](=O)[O-])ccc1O | 21.8 | 6.51 µM [rising, single point] | 
Cc1cc(C(=O)OCC(=O)Nc2ccccc2[N+](=O)[O-])c2ccccc2n1 | -3.21 | 2.31 µM [falling, partial curve] | 
Cc1cccc(NC(=O)c2cccc(S(=O)(=O)N3CCc4ccccc4C3)c2)n1 | -33.4 | 3.66 µM [rising, single point] | 18.4 µM [falling, partial curve, poor fit]
CCN(CC(=O)Nc1c(F)cccc1F)C(=O)c1ccc(N2CCCC2=O)cc1 | -9.64 |  | 
O=C(COC(=O)c1ccccc1Cl)NC1CCCCCCC1 | 6.06 |  | 
CCOC(=O)Cc1csc(NC(=O)c2csc(C)c2)n1 |  |  | 3.26 µM [falling, partial curve]
CN1C(=O)CC(C(=O)O)SC1=Nc1cc(Cl)cc(Cl)c1 (centres undefined) | -11.5 | 13 µM [rising, partial curve] | 
COc1cc(CN2CCC(CCC(=O)NC3CC3)CC2)cc(Cl)c1OC | 2.64 | 16.4 µM [rising, partial curve] | 
C[C@H](NC(=O)C1CCN(S(=O)(=O)c2ccccc2)CC1)C(=O)NCc1cccc(Cl)c1 |  | 0.58 µM [rising, single point] | 
O=C(Cc1ccc(F)cc1)c1ccc(O)cc1O | 54.8 |  | 20.6 µM [rising, single point]
COc1cccc(C=Nc2cccc3c(=O)[nH][nH]c(=O)c23)c1O | -27.1 |  | 1.3 µM [falling, full curve, poor fit]
Cc1ccccc1C(=O)NNC(=O)c1ccc(F)cc1 | 26.1 | 29.1 µM [rising, single point] | 
CCOc1ccc(NC(=O)c2cccc(-n3cccc3)c2)cc1S(=O)(=O)N1CCOCC1 | 9.35 | 29.1 µM [rising, single point] | 
CC(=O)Nc1cccc(NC(=O)CSc2nnc3ccc(-c4ccccn4)nn23)c1 | -15.5 |  | 
CC1CCC(C(C)C)C(=O)/C1=C/c1ccc(N)cc1 (centres undefined) | 2.06 | 0.651 µM [falling, full curve] | 

SMILES | cell number change [%] | AC50 [1] | AC50 [2]
CCNc1nc(SCCOc2ccc(Cl)cc2Cl)nc(N(C)C)n1 | -30.7 | 29.1 µM [falling, single point] | 32.6 µM [falling, single point]
Cc1sc2nc(C(C)C)nc(SCC(=O)N3c4ccccc4CC3C)c2c1C (centres undefined) | 15.4 | 0.82 µM [rising, full curve] | 
CCC(=O)N1CCc2cc(OC)c(OC)cc2C1COc1ccc(F)cc1 (centres undefined) | 5.63 | 0.461 µM [rising, partial curve, poor fit] | 
Cc1ccc(C)c(NC(=O)COC(=O)Cc2ccsc2)c1 |  |  | 6.51 µM [rising, single point]
O=C(COc1ccc(F)cc1)N1CCCCCCC1 | 20.2 |  | 0.00411 µM [rising, full curve, poor fit]
Cc1cc(Cl)ccc1NC(=O)CN1CCN(C(=O)c2ccco2)CC1 |  | 6.51 µM [falling, partial curve] | 
Cc1ccc(S(=O)(=O)N2CCNC(=O)C2)c(C)c1 | -24.5 |  | 0.00411 µM [falling, full curve, poor fit]
Cc1ccc(Nc2cc(-n3nc(C)cc3C)ncn2)c(C)c1 | -57.1 | 18.4 µM [falling, partial curve, poor fit] | 20.6 µM [falling, single point]
COc1ccc(C2=NOC(Cn3nc(C(=O)NCc4ccc(C)cc4)cc3-c3ccccc3)C2)cc1 (centres undefined) | -14.9 |  | 
Cc1ccc(Cn2c(=O)sc3ccccc3c2=O)cc1 |  |  | 6.51 µM [rising, single point]
O=C(NCC(c1ccco1)N1CCCC1)c1cccc(S(=O)(=O)Nc2ccc(F)cc2)c1 (centres undefined) | -22.5 |  | 
O=S(=O)(N/N=C\c1ccccc1O)c1ccc(Cl)cc1 |  |  | 5.8 µM [falling, single point]
CCCCNC(=O)c1c(N)n(/N=C/c2ccccn2)c2nc3ccccc3nc12 | -18.4 | 0.58 µM [falling, full curve] | 
O=C(O)Cn1c(-c2ccccn2)nc2ccccc21 | 14.9 |  | 
CC(C)(C)OC(=O)NCCCCCNC(=O)c1nc[nH]c1C(=O)N1CCN(C(=O)OC(C)(C)C)CC1 | -3.25 | 0.82 µM [falling, full curve, poor fit] | 
O=C(CSc1cccc[n+]1[O-])NC1CCCCCCC1 | -12.5 |  | 0.651 µM [rising, single point]
CC1(c2nnc(Cc3ccccc3)o2)CC(c2cccc(F)c2)=NO1 (centres undefined) | -5.87 |  | 
COc1ccc(CCC(C)Nc2cccc(C)c2)cc1 (centres undefined) | -40.4 | 23.1 µM [falling, single point] | 10.3 µM [falling, partial curve]
CCN1CCN(Cc2ccc(NC(=O)c3cc(NC(=O)N4CCNC4=O)cc(OC)c3)cc2C(F)(F)F)CC1 | 24.1 | 4.61 µM [rising, single point] | 
Cc1ccccc1C1CC(c2ccccc2)Nc2ncnn21 (centres undefined) | -0.146 | 0.00461 µM [rising, full curve, poor fit] | 
